# Measured values taken from patent US6348348.
# Key:
# [1] = test system: TR/RXR heterodimer (thyroid hormone receptor / retinoid X receptor); experiment: competition with a labelled probe; details: oligos C and E containing this sequence compete for binding to 106 bp fragment; protein translated in vitro; variant of rat hr 106 bp HinfI-EagI fragment
# [2] = test system: endogenous thyroid hormone receptor (GH1 cells) (rat); experiment: activity in cells; details: 106HE-tkluc in GH1 cells activated by 10^-7 M L-T3; protein in cells
# [3] = test system: TR/RXR heterodimer (thyroid hormone receptor / retinoid X receptor); experiment: EMSA; details: protein translated in vitro
sequence,measurement,setting,value
"GGTGGAGGGCATCTGAGGACATC (double strand) [23 bp sequence shared by oligos C and E (hr TRE, DR+4)]",binding result,[1],binds
AGTCAGGCCAAGCTGCCACTAATCCGGGCGGGGAGAGGGGGGGCACCCACGTCAGAGCGGGGACTGCCGGGTGGAGGGCATCTGAGGACATCCCCTCCCACTCACGCGGCC (double strand) [rat hr 106 bp HinfI-EagI fragment],activity on this sequence,[2],active
same,binding result,"[3]; described as high affinity, requires both TR and RXR, 5% gel 0.5xTBE, label: 32P",binds
TGGAGGGCATCTGAGGACATC (double strand) [minimal hr TRE],binding result,"[3]; minimal sequence assayed that binds TR/RXR and confers thyroid hormone responsiveness, variant of rat hr 106 bp HinfI-EagI …",binds

# Construct, isoform or probe ends are uncertain for at least one entry.
